Laboratory results from the supplement of paper PMC6445147.
Single values of this data set are uncertain.

B1: human tRNA-Pro; a variant is named by its letters at N, in order (parent)
chain: GGCTCGTTGGTCTAGNGGTATGATTCTCGCTTAGGGTGCGAGAGGTCCCGGGTTCNNATCCCGGACGAGCCC

Experiments:
[1] = variants of: B1; test: tRNA Pol-III promoter activity, log2 (circRNA frequency / plasmid DNA frequency) (log2 ratio); higher = stronger promoter activity; conditions: HEK293T; construct: no Pol-II promoter ((-)CMV library)
[2] = variants of: B1; test: tRNA 3' processing efficiency (processed reads / all reads, maximum-likelihood estimate) (fraction); higher = more efficient 3' processing; conditions: HEK293T; construct: no Pol-II promoter ((-)CMV library)
[3] = variants of: B1; test: tRNA 5' processing efficiency (processed reads / all reads, maximum-likelihood estimate) (fraction); higher = more efficient 5' processing; conditions: HEK293T; construct: CMV Pol-II promoter ((+)CMV library, decapped)

| Variant | tRNA Pol-III promoter activity (log2) [1] | tRNA 3' processing efficiency [2] | tRNA 5' processing efficiency [3] |
| --- | --- | --- | --- |
| GAA G9C A20T T53A A58G | 6.94 | 0.38 |  |
| GAA G15C A58G T59A | 4.3 | 0.11 |  |
| GAA G15C A58G T59G | 5.21 | 0.17 |  |
| GAA G9C A14C | 1.23 | 0.25 |  |
| CAA G15T T53A | 4.58 | 0.45 |  |
| GAA G15C T19G T59C | 5.62 | 0.42 |  |
| GAA G15A T19A A58G | 4.93 | 0.25 |  |
| GAA G15A G17C T53A T59A | 5.62 | 0.67 |  |
| TAA G15T T54A | 3.43 | 0.14 |  |
| GAA G15A G18A T19C T53A | 3.62 | 0.33 |  |
| GAA G17A T53A T59A | 5.94 | 0.25 |  |
| GAA G15C T19A T53A | 4.26 | 0.29 |  |
| GAA G15T T19G T53G | 2.92 | 0.5 |  |
| AAA G15A T54A | 2.77 | 0.2 |  |
| TAA G15T A58G T59G | 4.68 | 0.4 |  |
| GAA G9C G15T G17C T19C A58C | 5.25 | 0.8 |  |
| GAA G15C T19A T54A | 2.94 | 0.33 |  |
| GAA G17C A20T T53A | 4.74 | 0.14 |  |
| GAA G15A A58C T59A | 4.08 | 0.42 |  |
| GAA G15A G17T T53A | 3.3 | 0.17 |  |
| GAA G9C A14T A58C | 1.77 | 0.5 |  |
| GAA G9A T19C T53C | 5.62 | 0.5 |  |
| GAA G9T G18T T59G | 4.21 | 0.17 |  |

| Variant | tRNA Pol-III promoter activity (log2) [1] | tRNA 3' processing efficiency [2] | tRNA 5' processing efficiency [3] |
| --- | --- | --- | --- |
| GAA G15T T54G | -0.302 | 0.4 | 0.22 |
| GAA G15A T19G A58G | 4.8 | 0.18 |  |
| GAA G15A G17C T54A | 3.94 | 0.4 |  |
| GAA G17C A58T | 0.258 | 0.6 |  |
| GAA G17C A58G | -0.484 | 0.25 |  |
| GAA G17C G18C T53A | 4.77 | 0.3 |  |
| TAA G17A G18C T53C C55T | 3.93 | 0.25 |  |
| GAA G15T G18C A20T A58T | 6.53 | 0.83 |  |
| GAA G15C T19A A20T | 3.44 | 0.2 |  |
| AAA G9T | -1.6 | 0.5 |  |
| GAA G15T | -3.6 | 0.59 | 0.2 |
| GAA G15A | -4.13 | 0.48 | 0.17 |
| GAA G15C | -2.04 | 0.29 |  |
| GAA G15A G18T T54A | 1.87 | 0.17 |  |
| GAA G15T T19G T59A | 3.72 | 0.5 |  |
| GAA G9T G17T T19A A20T C55G | 4.94 | 0.1 |  |
| TAA G15T T53A | 2.94 | 0.67 |  |
| GAA G9T G50A | 7.18 | 0.32 |  |
| GAA G15A G50A | 5.25 | 0.29 |  |
| GAA G15C G18A T53A | 6.44 | 0.16 |  |
| GAA G15A T19A T54A T59C | 6.26 | 0.2 |  |
| GAA G15A T19A T53A | 4.25 | 0.4 |  |
| GAA G15C T53G | -0.479 | 0.25 |  |

| Variant | tRNA Pol-III promoter activity (log2) [1] | tRNA 3' processing efficiency [2] | tRNA 5' processing efficiency [3] |
| --- | --- | --- | --- |
| GAA G15C T53A | 2.64 | 0.24 |  |
| GAA G9A T19A | 1.03 | 0.77 |  |
| GAA G9T T19A | 0.176 | 0.4 |  |
| GAA G17A C55T A58G | 3.36 | 0.25 |  |
| GAA G15A A58G T59A | 3.09 | 0.4 |  |
| GAA G17C A20G T53A | 6.1 | 0.67 |  |
| GAA G15C T54A | -0.515 | 0.25 |  |
| CAA G9T T53A | 5.88 | 0.17 |  |
| GAA G9C G17C T53G | 2.57 | 0.25 |  |
| GAA G9C G15C G18T | 3.03 | 0.5 |  |
| GAA G17A T59A | 0.924 | 0.2 |  |
| GAA G17A T59G | -0.0718 | 0.25 |  |
| GAA G15C T59A | 2.64 | 0.72 |  |
| GAA G15C T59C | 1.95 | 0.57 |  |
| GAA G15C T59G | 2.58 | 0.33 |  |
| GAA G15T T53A | 1.32 | 0.52 | 0.25 |
| GAA G15A A58G | 0.121 | 0.43 |  |
| GAA G15A A58T | 2.14 | 0.43 | 0.5 |
| GAA G15A A58C | 1.39 | 0.29 |  |
| CAA G15C A58T | 2.19 | 0.4 |  |
| CAA G15C T59G | 5.12 | 0.25 |  |
| GAA G15C T19C T59G | 3.68 | 0.4 |  |
| GAA G9T G15T T54A C55T | 5.26 | 0.4 |  |

| Variant | tRNA Pol-III promoter activity (log2) [1] | tRNA 3' processing efficiency [2] | tRNA 5' processing efficiency [3] |
| --- | --- | --- | --- |
| TAA G15A A58G | 2.19 | 0.5 |  |
| GAA G9T T19A A58T | 2.12 | 0.25 |  |
| AAA G15A A58T | 3.36 | 0.33 |  |
| GAA G9C T19C T59C | 5.36 | 0.4 |  |
| GAA G9C T19A A20T | 3.05 | 0.57 |  |
| GAA G15C A58G | -0.382 | 0.33 |  |
| GAA G15C A58T | 0.1 | 0.4 |  |
| GAA G15C A58C | 0.14 | 0.34 |  |
| GAA G17A A20T A58C | 1.28 | 0.25 |  |
| TAA G15T A58C | 4.26 | 0.49 |  |
| CAA G17C A58G | 3.93 | 0.14 |  |
| GAA G15C T19G A58T | 2.36 | 0.5 |  |
| AAA G15A C55T | 1.4 | 0.25 |  |
| GAA G15A T54A A58G | 3.05 | 0.33 |  |
| TAA G15C T59A | 2.12 | 0.25 |  |
| GAA G9C | -3.32 | 0.29 |  |
| GAA G9T | -5.41 | 0.5 | 0.1 |
| GAA G15T T19C T53A | 3.93 | 0.33 |  |
| GAA G9A T53G | 0.831 | 0.67 |  |
| GAA G9A T53C | 1.43 | 0.08 |  |
| GAA G9A T53A | 1.53 | 0.22 |  |
| GAA G17A T19C A58T | 2.93 | 0.25 |  |
| TAA G15T | -1.01 | 0.5 | 0.5 |

Copied from above for reference:

| Variant | tRNA Pol-III promoter activity (log2) [1] | tRNA 3' processing efficiency [2] | tRNA 5' processing efficiency [3] |
| --- | --- | --- | --- |
| GAA G15C G18A T53A | 6.44 | 0.16 |  |
| GAA G15A T19A T54A T59C | 6.26 | 0.2 |  |
| GAA G15A T19A T53A | 4.25 | 0.4 |  |
| GAA G15C T53G | -0.479 | 0.25 |  |
| GAA G15C T53A | 2.64 | 0.24 |  |
| GAA G9A T19A | 1.03 | 0.77 |  |
| GAA G9T T19A | 0.176 | 0.4 |  |
| GAA G17A C55T A58G | 3.36 | 0.25 |  |
| GAA G15A A58G T59A | 3.09 | 0.4 |  |
| GAA G17C A20G T53A | 6.1 | 0.67 |  |
| GAA G15C T54A | -0.515 | 0.25 |  |
| CAA G9T T53A | 5.88 | 0.17 |  |
| GAA G9C G17C T53G | 2.57 | 0.25 |  |
| GAA G9C G15C G18T | 3.03 | 0.5 |  |
| GAA G17A T59A | 0.924 | 0.2 |  |
| GAA G17A T59G | -0.0718 | 0.25 |  |
| GAA G15C T59A | 2.64 | 0.72 |  |
| GAA G15C T59C | 1.95 | 0.57 |  |
| GAA G15C T59G | 2.58 | 0.33 |  |
| GAA G15T T53A | 1.32 | 0.52 | 0.25 |
| GAA G15A A58G | 0.121 | 0.43 |  |
| GAA G15A A58T | 2.14 | 0.43 | 0.5 |
| GAA G15A A58C | 1.39 | 0.29 |  |
| CAA G15C A58T | 2.19 | 0.4 |  |
| CAA G15C T59G | 5.12 | 0.25 |  |
| GAA G15C T19C T59G | 3.68 | 0.4 |  |
| GAA G9T G15T T54A C55T | 5.26 | 0.4 |  |
| TAA G15A A58G | 2.19 | 0.5 |  |
| GAA G9T T19A A58T | 2.12 | 0.25 |  |
| AAA G15A A58T | 3.36 | 0.33 |  |
| GAA G9C T19C T59C | 5.36 | 0.4 |  |

Next results

| Variant | tRNA Pol-III promoter activity (log2) [1] | tRNA 3' processing efficiency [2] | tRNA 5' processing efficiency [3] |
| --- | --- | --- | --- |
| TAA G15C | -0.73 | 0.25 |  |
| GAA G9T T19G A58G | 2.62 | 0.25 |  |
| GAA G15A G17C T19A | 4.15 | 0.85 |  |
| GAA G15C C55T T59C | 2.76 | 0.25 |  |
| GAA G9A T53A A58G T59C | 4.53 | 0.33 |  |
| GAA G9A T53A A58G T59A | 5.75 | 0.57 |  |
| GAA G15T G17A T53A | 4.03 | 0.33 |  |
| GAA G9T T19C T53A | 4.62 | 0.33 |  |
| GAA G15C G18T A20G A58T | 5.53 | 0.33 |  |
| GAA G15A T53A | 1.19 | 0.2 |  |
| GAA G15A T53G | 1.4 | 0.4 | 0.2 |
| AAA G9A G17T T19A T59G | 3.53 | 0.33 |  |
| CAA G15C T19G | 5.34 | 0.04 |  |
| AAA G9A T59G | 4.93 | 0.17 |  |
| GAA G9T A14G G18A | 3.68 | 0.25 |  |
| GAA G15T T59G | 0.51 | 0.4 |  |
| GAA G9A T19A A20C A58T | 6.03 | 0.25 |  |
| AAA G9T G17T T53A | 6.74 | 0.57 |  |
| GAA G17A T53A | 0.606 | 0.43 |  |
| CAA G9T A58T | 4 | 0.62 |  |
| TAA G9T | -0.275 | 0.2 | 0.17 |
